{
  "source": "patent US11202761B2",
  "about": "“Formulations for oral delivery of adsorbents in the gut” (Da Volterra, priority 2010, dated 2021)",
  "assay": "Kinetics of levofloxacin adsorption by NFAC in simulated colonic fluid",
  "format": "physicochemical",
  "details": "lowest ratio of NFAC to levofloxacin (3:1), levofloxacin 50 μg/ml, simulated colonic fluid pH 6.0, 37° C., after 30 min",
  "note": "At least one compound was matched to its structure with a doubt left.",
  "data": [
    {"smiles": "C[C@H]1COc2c(N3CCN(C)CC3)c(F)cc3c(=O)c(C(=O)O)cn1c23", "note": "[Levofloxacine]", "values": [
      {"measurement": "levofloxacin adsorbed onto the charcoal", "value": "all of the antibiotic was adsorbed"}
    ]}
  ]
}
